Earlier results as cited in patent publication US12186283B2, “Bismuth-thiol compositions and methods of use” (Microbion Corporation, priority 2018, dated 2025).
For at least one compound, name, drawing or mass did not settle the structure.

Legend:
Escherichia coli = conditions: E. coli MMX 102 (ATCC 25922); cited from earlier work
Pseudomonas aeruginosa = conditions: P. aeruginosa MMX 103 (ATCC 27853); cited from earlier work
[1] = test system: S. pneumoniae (pneumococci); conditions: S. pneumoniae MMX 6837 (ATCC 49619); cited from earlier work

| Structure (SMILES) | CLSI QC range (MIC) (Escherichia coli) | CLSI QC range (MIC) (Pseudomonas aeruginosa) | MIC, CLSI QC range [1] |
| --- | --- | --- | --- |
| C[C@H]1COc2c(N3CCN(C)CC3)c(F)cc3c(=O)c(C(=O)O)cn1c23 [Levofloxacin, reference compound] | (0.008-0.06)^1 μg/mL | (0.5-4) | (0.5-2)^1 μg/mL |
| CCC[C@@H]1C[C@@H](C(=O)N[C@@H]([C@H]2O[C@H](SC)[C@H](O)[C@@H](O)[C@H]2O)[C@H](C)Cl)N(C)C1 [clindamycin, reference compound] |  |  | (0.03-0.12) μg/mL |
